US7778782B1, “Peroxisome proliferation activated receptor alpha (PPARα) signatures” (priority 2002, dated 2010)
For at least one compound, name, drawing or mass did not settle the structure.

System: PPARα response signature
Test: Signature Projection Score (SPS) of liver gene expression against the PPARα response signature
Design: species or system male Sprague-Dawley rats
Conditions: rat, in vivo
Method: Compound dosing was based on the acute dose LD50s recorded in published reference or literature sources. Duplicate rats were dosed at each of 3 doses: at LD50, one-half and one-fourth of LD50. The MTD (maximum tolerated dose) was then selected as the dose at which the animals […] 5-10% body weight during the 5-day range finding study. […] In addition, the clinical observations must show no or mild clinical signs during the whole of the range-finding study. At the next highest dose, signs and symptoms of adverse effects and exceeding those of the MTD should be seen to occur. Should these criteria not be met, the range-finding study is repeated using a modified dose range.
After determination of the MTD and FED for a compound, each compound was dissolved in a vehicle for administration on day 1 of the study (additional daily doses were stored as frozen aliquots from this initial formulation). […] Animal body weights were determined at 1 day and, where appropriate, at 4 days, before necropsy, and clinical observations were made on a daily basis. […]
Tissue harvest and handling: After the allocated treatment time, the tissues from the animals were harvested. […] The parameters were measured using a Hitachi-911 clinical chemistry analysis instrument according to the manufacturer's instructions. […]

Compound: CC(C)n1c(/C=C/C(O)CC(O)CC(=O)O)c(-c2ccc(F)cc2)c2ccccc21 (stereo not shown) [FLUVASTATIN]
- similarity to the PPARα response signature: significantly similar to the signature
